Data from patent EP1019524B1.
These are yes or no findings as the source states them, for the method shown. For some of these results: Binding seen in cells or lysates may run through a third protein. Some results given as binding are weak or reduced against the parent protein; the word gives no strength.

Tests used:
[1] = molecular target: purified PP1α released from the GST-PP1α fusion protein by thrombin (human) (UniProt P62136); test: GST pulldown in vitro
[2] = molecular target: purified PP1α released from the GST-PP1α fusion protein by thrombin (human) (UniProt P62136); test: GST pulldown of purified PP1α, immunoblot with anti-PP1α antibody
[3] = molecular target: protein encoded by the cDNA isolated from the human brain cDNA library in the yeast two-hybrid screen: catalytic subunit of protein phosphatase 1α (PP1α) (human) (UniProt P62136); test: yeast two-hybrid
[4] = molecular target: protein encoded by the cDNA isolated from the human brain cDNA library in the yeast two-hybrid screen: catalytic subunit of protein phosphatase 1α (PP1α) (human) (UniProt P62136); test: yeast two-hybrid, β-galactosidase filter assay

Row | Substance | binding [1] | binding [2] | binding [3] | binding [4]
1 | GST fused to the carboxyl terminus of MyD116 (pRB4873) (from UniProt P17564 485-657) | binds | binds |  | 
2 | carboxyl terminus of MyD116 (codons 524 to 657) in pGBT9 (pRB4890), the bait of the yeast two-hybrid system (from UniProt P17564 524-657) |  |  | binds | binds
